Experimental findings from PubChem BioAssay AID322 (DTP/NCI, 2004) are described below.

The subject of this assay is CD2F1 mice, P388/ADR leukemia ip, median survival T/C. The assay is described as follows: NCI In Vivo Anticancer Drug Screen. Data for tumor model P388 Leukemia resistant to Adriamycin; NSC 123127, Developed at Scr 08 (intraperitoneal) in CD2F1 (CDF1) mice. The conditions noted are these: T/C endpoint: median survival time, higher T/C = longer survival. The protocol: The antitumor activity of compounds was measured in mice bearing transplantable tumors. Survival or tumor size were measured and the results are expressed as the measurement made in the treated group (T) divided by the measurement made in the vehicle treated control group (C). The tumor model used in this assay is P388 Leukemia resistant to Adriamycin; NSC 123127, Developed at Scr 08 (intraperitoneal) in CD2F1 (CDF1) mice

[1] abbreviates: dose: 25.0 mg/kg/injection, schedule: Q01DX005 (ip), vehicle: saline with Tween-80.

The list shows only some results of the screen, not a fair sample: it is rich in T/C values a quarter to a half above the control, in often repeated tests (any T/C) and in doses without a T/C. Other doses and runs of a compound stand elsewhere. T/C is the treated group as % of the vehicle group. Some doses have a count of surviving animals in place of a T/C: the source holds a T/C of zero for them, seemingly a mark for toxic or unscored doses. Some doses without a T/C left all or most animals alive at the check, yet need not have been tolerated: survival well below the control is almost never listed, so the zero probably covers shortened survival too. Survivors were counted at the toxicity check, usually on the fifth day, unless a day is given; later deaths do not show. Schedules are NCI's codes, read here as Q, the interval in days (D) or hours (H), X, the number of doses. For survival time, this PubChem deposit counts one and a half times the control or more as active, and values a quarter to a half above the control carry no call in these data; other NCI protocols may use other cut-offs. Some T/C values carry the count of animals alive at the toxicity check (mostly the fifth day); where none is given, no animal had died by that day. Some entries were tested several times; the values are given in rising order. Brackets with × say how often a value occurs here.

`Nc1nc(Br)nc2c1ncn2C1CC(O)C(CO)O1` (stereo unspecified): the T/C was 127 % of control (dose: 1.5 mg/kg/injection, schedule: Q01DX005 (ip), vehicle: suspension in saline); 131 % of control (dose: 3.0 mg/kg/injection, schedule: Q01DX005 (ip), vehicle: suspension in saline); 147 % of control (dose: 6.0 mg/kg/injection, schedule: Q01DX005 (ip), vehicle: suspension in saline); 142 % of control (dose: 12.0 mg/kg/injection, schedule: Q01DX005 (ip), vehicle: suspension in saline); 135 % of control (dose: 15.0 mg/kg/injection, schedule: Q01DX005 (ip), vehicle: suspension in saline); 138 % of control (dose: 24.0 mg/kg/injection, schedule: Q01DX005 (ip), vehicle: suspension in saline). For the same compound, the T/C is 136 % of control (dose: 30.0 mg/kg/injection, schedule: Q01DX005 (ip), vehicle: suspension in saline); 134 % of control (dose: 60.0 mg/kg/injection, schedule: Q01DX005 (ip), vehicle: suspension in saline); 137 % of control (dose: 120.0 mg/kg/injection, schedule: Q01DX005 (ip), vehicle: suspension in saline). In addition, the survivor count (dose: 240.0 mg/kg/injection, schedule: Q01DX005 (ip), vehicle: suspension in saline) is listed as 3 of 10.

Regarding `CN=C(NC)c1ccc(NC(=O)/C=C\c2ccc(/C=C/C(=O)Nc3ccc(C(=NC)NC)cc3)cc2)cc1`, the T/C was 144 % of control (dose: 12.5 mg/kg/injection, schedule: Q01DX005 (ip), vehicle: Klucel (hydroxypropylcellulose) (HPC)) and 131 % of control [9 of 10 alive] (dose: 25.0 mg/kg/injection, schedule: Q01DX005 (ip), vehicle: Klucel (hydroxypropylcellulose) (HPC)).

Take `O=c1[nH]cc(F)c(=O)[nH]1`: the T/C is, setting by setting: (dose: 15.0 mg/kg/injection, schedule: Q01DX005 (ip), vehicle: saline, evaluated on day 23) 136 % of control; (dose: 15.0 mg/kg/injection, schedule: Q01DX005 (ip), vehicle: saline, evaluated on day 30) 127 [9 of 10 alive], 130, 136, 141, 145 (3×), 146, 150, 151, 153, 154, 155, 157, 158, 159 (3×), 161, 168, 186, 223 % of control; (dose: 15.0 mg/kg/injection, schedule: Q01DX005 (ip), vehicle: saline, evaluated on day 45) 150 % of control; (dose: 15.0 mg/kg/injection, schedule: Q01DX005 (ip), vehicle: saline, evaluated on day 56) 150 % of control; (dose: 15.0 mg/kg/injection, schedule: Q01DX005 (ip), vehicle: saline, evaluated on day 60) 130, 134, 140 [9 of 10 alive], 147, 150, 165 % of control; (dose: 20.0 mg/kg/injection, schedule: Q01DX005 (ip), vehicle: saline, evaluated on day 30) 155, 157, 162 % of control. Moreover, the T/C was 152, 154, 161 % of control (dose: 20.0 mg/kg/injection, schedule: Q01DX005 (ip), vehicle: saline, evaluated on day 45); 122 % of control (dose: 25.0 mg/kg/injection, schedule: Q01DX005 (ip), vehicle: saline, evaluated on day 23); 139, 143 (2×), 144, 147, 148, 149, 150, 151 (2×), 154, 156, 157, 158 [9 of 10 alive], 161 (5×), 167, 168 (2×), 186 % of control (dose: 25.0 mg/kg/injection, schedule: Q01DX005 (ip), vehicle: saline, evaluated on day 30); 154, 164, 165, 166 % of control (dose: 25.0 mg/kg/injection, schedule: Q01DX005 (ip), vehicle: saline, evaluated on day 45); 166 % of control (dose: 25.0 mg/kg/injection, schedule: Q01DX005 (ip), vehicle: saline, evaluated on day 56); 139, 142, 144, 153 (2×), 173 % of control (dose: 25.0 mg/kg/injection, schedule: Q01DX005 (ip), vehicle: saline, evaluated on day 60).

Turning to `COc1cc(C)c(C2NC(=O)c3ccccc3N2)cc1C` (stereo unspecified), the T/C (dose: 172.0 mg/kg/injection, schedule: Q01DX005 (ip), vehicle: Klucel (hydroxypropylcellulose) (HPC)) is 134 % of control.

On to `OC(CBr)C(O)C(O)C(O)CBr` (stereo unspecified), for which the T/C (dose: 40.0 mg/kg/injection, schedule: Q01DX009 (ip), vehicle: Klucel (hydroxypropylcellulose) (HPC)) was 146 % of control.

Regarding `O=C(Oc1ccccc1)c1cc(O)c(O)c(O)c1`, the survivor count (dose: 400.0 mg/kg/injection, schedule: Q01DX005 (ip), vehicle: saline with Tween-80) was 3 of 6.

For the compound `CC[C@@]1(O)CC(OC2CC(N3CCOCC3)C(O)C(C)O2)c2c(O)c3c(c(O)c2[C@H]1O)C(=O)c1cccc(O)c1C3=O` (stereo partly specified), the T/C is, setting by setting: (dose: 0.89 mg/kg/injection, schedule: Q04DX003 (iv), vehicle: saline) 133 % of control; (dose: 1.33 mg/kg/injection, schedule: Q04DX003 (iv), vehicle: saline) 140 % of control; (dose: 2.0 mg/kg/injection, schedule: Q04DX003 (iv), vehicle: saline) 139 % of control. The survivor count (dose: 4.5 mg/kg/injection, schedule: Q04DX003 (iv), vehicle: saline) is recorded as 10 of 10.

As for `COc1cc2c(c3c1c(=O)c1ccccc1n3C)C=CC(C)(C)O2`, the survivor count is listed as 10 of 10 (dose: 100.0 mg/kg/injection, schedule: Q01DX005 (ip), vehicle: saline with Tween-80) and 0 of 10 (dose: 200.0 mg/kg/injection, schedule: Q01DX005 (ip), vehicle: saline with Tween-80).

Take `CO[C@@]12[C@@H]3N[C@@H]3CN1C1=C(C(=O)C(N3CCCC3)=C(C)C1=O)[C@@H]2COC(N)=O`: the T/C (dose: 0.78 mg/kg/injection, schedule: Q01DX005 (ip), vehicle: saline with Tween-80) was 129 % of control; the T/C (dose: 1.56 mg/kg/injection, schedule: Q01DX005 (ip), vehicle: saline with Tween-80) is 126 and 131 % of control; the T/C (dose: 2.25 mg/kg/injection, schedule: Q01DX005 (ip), vehicle: saline with Tween-80) is 129 % of control; the T/C (dose: 3.12 mg/kg/injection, schedule: Q01DX005 (ip), vehicle: saline with Tween-80) was 129 % of control; the T/C (dose: 3.13 mg/kg/injection, schedule: Q01DX005 (ip), vehicle: saline with Tween-80) is 147 % of control; the T/C (dose: 6.25 mg/kg/injection, schedule: Q01DX005 (ip), vehicle: saline with Tween-80) was 129 % of control. For the same compound, under setting [1], the survivor count is reported as 10 of 10.

`[N-]=[N+]=CC(=O)CCC(NC(=O)OCc1ccccc1)C(=O)OCc1ccccc1` (stereo unspecified): the T/C by setting is: (dose: 50.0 mg/kg/injection, schedule: Q01DX005 (ip), vehicle: Klucel (hydroxypropylcellulose) (HPC)) 136 % of control; (dose: 100.0 mg/kg/injection, schedule: Q01DX005 (ip), vehicle: Klucel (hydroxypropylcellulose) (HPC)) 127 % of control; (dose: 167.0 mg/kg/injection, schedule: Q01DX005 (ip), vehicle: Klucel (hydroxypropylcellulose) (HPC)) 138 % of control.

As for `O=C(O)Cc1cccc2c(=O)cc(-c3ccccc3)oc12`, the T/C was 138 % of control (dose: 30.0 mg/kg/injection, schedule: Q01DX009 (ip), vehicle: sodium bicarbonate); 138 % of control (dose: 44.0 mg/kg/injection, schedule: Q01DX009 (ip), vehicle: saline); 147 % of control (dose: 44.0 mg/kg/injection, schedule: Q01DX009 (ip), vehicle: sodium bicarbonate); 148 % of control (dose: 67.0 mg/kg/injection, schedule: Q01DX005 (ip), vehicle: saline); 143 % of control (dose: 100.0 mg/kg/injection, schedule: Q01DX009 (ip), vehicle: saline); 134 % of control (dose: 200.0 mg/kg/injection, schedule: Q04DX002 (ip), vehicle: sodium bicarbonate).

Take `O=[N+]([O-])c1ccc(N(CCO)CCO)c2c1no[n+]2[O-]`: the T/C was 136 % of control (dose: 12.5 mg/kg/injection, schedule: Q01DX005 (ip), vehicle: saline with Tween-80); 135 % of control under setting [1]; 128 % of control (dose: 50.0 mg/kg/injection, schedule: Q01DX005 (ip), vehicle: saline with Tween-80).

On to `CO[C@H]1C[C@](C)(O)Cc2cc3c(c(O)c21)C(=O)c1c(O)cc2c(c1C3=O)O[C@@H]1O[C@@]2(C)[C@H](O)[C@@H](N(C)C)[C@@H]1O`, for which the T/C runs as follows: (dose: 6.7 mg/kg/injection, schedule: Q01DX009 (ip), vehicle: other) 145 % of control; (dose: 10.0 mg/kg/injection, schedule: Q01DX009 (ip), vehicle: other) 145 % of control; (dose: 15.0 mg/kg/injection, schedule: Q01DX009 (ip), vehicle: other) 146 % of control; (dose: 22.5 mg/kg/injection, schedule: Q01DX009 (ip), vehicle: other) 133 % of control.
